B1: Ig gamma-2 chain C region (protein, UniProt P01859 1-395, looked up)
Immunoglobulin heavy constant …: ASTKGPSVFPLAPCSRSTSESTAALGCLVKDYFPEPVTVSWNSGALTSGVHTFPAVLQSSGLYSLSSVVTVPSSNFGTQTYTCNVDHKPSNTKVDKTVERKCCVECPPCPAPPVAGPSVFLFPPKPKDTLMISRTPEVTCVVVDVSHEDPEVQFNWYVDGVEVHNAKTKPREEQFNSTFRVVSVLTVVHQDWLNGKEYKCKVSNKGLPAPIEKTISKTKGQPREPQVYTLPPSREEMTKNQVSLTCLVKGFYPSDISVEWESNGQPENNYKTTPPMLDSDGSFFLYSKLTVDKSRWQQGNVFSCSVMHEALHNHYTQKSLSLSPELQLEESCAEAQDGELDGLWTTITIFITLFLLSVCYSATITFFKVKWIFSSVVDLKQTIVPDYRNMIRQGA
B2: Ig gamma-3 chain C region (protein, UniProt P01860 1-446, looked up)
Immunoglobulin heavy constant …: ASTKGPSVFPLAPCSRSTSGGTAALGCLVKDYFPEPVTVSWNSGALTSGVHTFPAVLQSSGLYSLSSVVTVPSSSLGTQTYTCNVNHKPSNTKVDKRVELKTPLGDTTHTCPRCPEPKSCDTPPPCPRCPEPKSCDTPPPCPRCPEPKSCDTPPPCPRCPAPELLGGPSVFLFPPKPKDTLMISRTPEVTCVVVDVSHEDPEVQFKWYVDGVEVHNAKTKPREEQYNSTFRVVSVLTVLHQDWLNGKEYKCKVSNKALPAPIEKTISKTKGQPREPQVYTLPPSREEMTKNQVSLTCLVKGFYPSDIAVEWESSGQPENNYNTTPPMLDSDGSFFLYSKLTVDKSRWQQGNIFSCSVMHEALHNRFTQKSLSLSPELQLEESCAEAQDGELDGLWTTITIFITLFLLSVCYSATVTFFKVKWIFSSVVDLKQTIIPDYRNMIGQGA
B3: Cystatin-C (protein, UniProt P01034 27-146, looked up)
Cystatin-C: SSPGKPPRLVGGPMDASVEEEGVRRALDFAVGEYNKASNDMYHSRALQVVRARKQIVAGVNYFLDVELGRTTCTKTQPNLDNCPFHDQPHLKRKAFCSFQIYAVPWQGTMTLSKSTCQDA
B4: Phosphatidylethanolamine-binding protein 4 (protein, UniProt Q96S96 23-227, looked up)
Phosphatidylethanolamine-bindi …: DEDENSPCAHEALLDEDTLFCQGLEVFYPELGNIGCKVVPDCNNYRQKITSWMEPIVKFPGAVDGATYILVMVDPDAPSRAEPRQRFWRHWLVTDIKGADLKKGKIQGQELSAYQAPSPPAHSGFHRYQFFVYLQEGKVISLLPKENKTRGSWKMDRFLNRFHLGEPEASTQFMTQNYQDSPTLQAPRERASEPKHKNQAEIAAC
B5: DNA repair protein REV1 (protein, UniProt Q9UBZ9 1-1251, looked up)
DNA repair protein REV1: MRRGGWRKRAENDGWETWGGYMAAKVQKLEEQFRSDAAMQKDGTSSTIFSGVAIYVNGYTDPSAEELRKLMMLHGGQYHVYYSRSKTTHIIATNLPNAKIKELKGEKVIRPEWIVESIKAGRLLSYIPYQLYTKQSSVQKGLSFNPVCRPEDPLPGPSNIAKQLNNRVNHIVKKIETENEVKVNGMNSWNEEDENNDFSFVDLEQTSPGRKQNGIPHPRGSTAIFNGHTPSSNGALKTQDCLVPMVNSVASRLSPAFSQEEDKAEKSSTDFRDCTLQQLQQSTRNTDALRNPHRTNSFSLSPLHSNTKINGAHHSTVQGPSSTKSTSSVSTFSKAAPSVPSKPSDCNFISNFYSHSRLHHISMWKCELTEFVNTLQRQSNGIFPGREKLKKMKTGRSALVVTDTGDMSVLNSPRHQSCIMHVDMDCFFVSVGIRNRPDLKGKPVAVTSNRGTGRAPLRPGANPQLEWQYYQNKILKGKAADIPDSSLWENPDSAQANGIDSVLSRAEIASCSYEARQLGIKNGMFFGHAKQLCPNLQAVPYDFHAYKEVAQTLYETLASYTHNIEAVSCDEALVDITEILAETKLTPDEFANAVRMEIKDQTKCAASVGIGSNILLARMATRKAKPDGQYHLKPEEVDDFIRGQLVTNLPGVGHSMESKLASLGIKTCGDLQYMTMAKLQKEFGPKTGQMLYRFCRGLDDRPVRTEKERKSVSAEINYGIRFTQPKEAEAFLLSLSEEIQRRLEATGMKGKRLTLKIMVRKPGAPVETAKFGGHGICDNIARTVTLDQATDNAKIIGKAMLNMFHTMKLNISDMRGVGIHVNQLVPTNLNPSTCPSRPSVQSSHFPSGSYSVRDVFQVQKAKKSTEEEHKEVFRAAVDLEISSASRTCTFLPPFPAHLPTSPDTNKAESSGKWNGLHTPVSVQSRLNLSIEVPSPSQLDQSVLEALPPDLREQVEQVCAVQQAESHGDKKKEPVNGCNTGILPQPVGTVLLQIPEPQESNSDAGINLIALPAFSQVDPEVFAALPAELQRELKAAYDQRQRQGENSTHQQSASASVPKNPLLHLKAAVKEKKRNKKKKTIGSPKRIQSPLNNKLLNSPAKTLPGACGSPQKLIDGFLKHEGPPAEKPLEELSASTSGVPGLSSLQSDPAGCVRPPAPNLAGAVEFNDVKTLLREWITTISDPMEEDILQVVKYCTDLIEEKDLEKLDLVIKYMKRLMQQSVESVWNMAFDFILDNVQVVLQQTYGSTLKVT
B6: Trypsin-2 (protein, UniProt P07478 24-247, looked up)
Trypsin-2: IVGGYICEENSVPYQVSLNSGYHFCGGSLISEQWVVSAGHCYKSRIQVRLGEHNIEVLEGNEQFINAAKIIRHPKYNSRTLDNDILLIKLSSPAVINSRVSAISLPTAPPAAGTESLISGWGNTLSSGADYPDELQCLDAPVLSQAECEASYPGKITNNMFCVGFLEGGKDSCQGDSGGPVVSNGELQGIVSWGYGCAQKNRPGVYTKVYNYVDWIKDTIAANS
B7: N(G),N(G)-dimethylarginine dimethylaminohydrolase 2 (protein, UniProt O95865 1-285, looked up)
Putative hydrolase DDAH2: MGTPGEGLGRCSHALIRGVPESLASGEGAGAGLPALDLAKAQREHGVLGGKLRQRLGLQLLELPPEESLPLGPLLGDTAVIQGDTALITRPWSPARRPEVDGVRKALQDLGLRIVEIGDENATLDGTDVLFTGREFFVGLSKWTNHRGAEIVADTFRDFAVSTVPVSGPSHLRGLCGMGGPRTVVAGSSDAAQKAVRAMAVLTDHPYASLTLPDDAAADCLFLRPGLPGVPPFLLHRGGGDLPNSQEALQKLSDVTLVPVSCSELEKAGAGLSSLCLVLSTRPHS
B8: Abhydrolase domain-containing protein 14B (protein, UniProt Q96IU4 2-210, looked up)
Putative protein-lysine …: AASVEQREGTIQVQGQALFFREALPGSGQARFSVLLLHGIRFSSETWQNLGTLHRLAQAGYRAVAIDLPGLGHSKEAAAPAPIGELAPGSFLAAVVDALELGPPVVISPSLSGMYSLPFLTAPGSQLPGFVPVAPICTDKINAANYASVKTPALIVYGDQDPMGQTSFEHLKQLPNHRVLIMKGAGHPCYLDKPEEWHTGLLDFLQGLQ
B9: Alpha-1-antichymotrypsin (protein, UniProt P01011 24-423, looked up)
Alpha-1-antichymotrypsin: HPNSPLDEENLTQENQDRGTHVDLGLASANVDFAFSLYKQLVLKAPDKNVIFSPLSISTALAFLSLGAHNTTLTEILKGLKFNLTETSEAEIHQSFQHLLRTLNQSSDELQLSMGNAMFVKEQLSLLDRFTEDAKRLYGSEAFATDFQDSAAAKKLINDYVKNGTRGKITDLIKDLDSQTMMVLVNYIFFKAKWEMPFDPQDTHQSRFYLSKKKWVMVPMMSLHHLTIPYFRDEELSCTVVELKYTGNASALFILPDQDKMEEVEAMLLPETLKRWRDSLEFREIGELYLPKFSISRDYNLNDILLQLGIEEAFTSKADLSGITGARNLAVSQVVHKAVLDVFEEGTEASAATAVKITLLSALVETRTIVRFNRPFLMIIVPTDTQNIFFMSKVTNPKQA
B10: Ig alpha-1 chain C region (protein, UniProt P01876 1-398, looked up)
Immunoglobulin heavy constant …: ASPTSPKVFPLSLCSTQPDGNVVIACLVQGFFPQEPLSVTWSESGQGVTARNFPPSQDASGDLYTTSSQLTLPATQCLAGKSVTCHVKHYTNPSQDVTVPCPVPSTPPTPSPSTPPTPSPSCCHPRLSLHRPALEDLLLGSEANLTCTLTGLRDASGVTFTWTPSSGKSAVQGPPERDLCGCYSVSSVLPGCAEPWNHGKTFTCTAAYPESKTPLTATLSKSGNTFRPEVHLLPPPSEELALNELVTLTCLARGFSPKDVLVRWLQGSQELPREKYLTWASRQEPSQGTTTFAVTSILRVAAEDWKKGDTFSCMVGHEALPLAFTQKTIDRLADWQMPPPYVVLDLPQETLEEETPGANLWPTTITFLTLFLLSLFYSTALTVTSVRGPSGNREGPQY
B11: N-acetylmuramoyl-L-alanine amidase (protein, UniProt Q96PD5 22-576, looked up)
N-acetylmuramoyl-L-alanine …: SLPLLMDSVIQALAELEQKVPAAKTRHTASAWLMSAPNSGPHNRLYHFLLGAWSLNATELDPCPLSPELLGLTKEVARHDVREGKEYGVVLAPDGSTVAVEPLLAGLEAGLQGRRVINLPLDSMAAPWETGDTFPDVVAIAPDVRATSSPGLRDGSPDVTTADIGANTPDATKGCPDVQASLPDAKAKSPPTMVDSLLAVTLAGNLGLTFLRGSQTQSHPDLGTEGCWDQLSAPRTFTLLDPKASLLTMAFLNGALDGVILGDYLSRTPEPRPSLSHLLSQYYGAGVARDPGFRSNFRRQNGAALTSASILAQQVWGTLVLLQRLEPVHLQLQCMSQEQLAQVAANATKEFTEAFLGCPAIHPRCRWGAAPYRGRPKLLQLPLGFLYVHHTYVPAPPCTDFTRCAANMRSMQRYHQDTQGWGDIGYSFVVGSDGYVYEGRGWHWVGAHTLGHNSRGFGVAIVGNYTAALPTEAALRTVRDTLPSCAVRAGLLRPDYALLGHRQLVRTDCPGDALFDLLRTWPHFTATVKPRPARSVSKRSRREPPPRTLPATDLQ
B12: Uteroglobin (protein, UniProt P11684 22-91, looked up)
Uteroglobin: EICPSFQRVIETLLMDTPSSYEAAMELFSPDQDMREAGAQLKKLVDTLPQKPRESIIKLMEKIAQSSLCN
B13: Vesicular integral-membrane protein VIP36 (protein, UniProt Q12907 45-356, looked up)
Vesicular integral-membrane …: DITDGNSEHLKREHSLIKPYQGVGSSSMPLWDFQGSTMLTSQYVRLTPDERSKEGSIWNHQPCFLKDWEMHVHFKVHGTGKKNLHGDGIALWYTRDRLVPGPVFGSKDNFHGLAIFLDTYPNDETTERVFPYISVMVNNGSLSYDHSKDGRWTELAGCTADFRNRDHDTFLAVRYSRGRLTVMTDLEDKNEWKNCIDITGVRLPTGYYFGASAGTGDLSDNHDIISMKLFQLMVEHTPDEESIDWTKIEPSVNFLKSPKDNVDDPTGNFRSGPLTGWRVFLLLLCALLGIVVCAVVGAVVFQKRQERNKRFY

The first data set can be described thus: RRT study: LC-MS/MS urinary proteomics, AKI after cardiac surgery, RRT vs No RRT. On the set-up: species or system human. The note with it: direction of urinary abundance, patients who did vs did not require RRT/dialysis.
Consider B1, for which the “Up or Down” value is on record as “Up”. For B2, the “Up or Down” value is on record as “Up”.

For B3, the “Up or Down” value is on record as “Up”. Take B4: the “Up or Down” value is on record as “Up”. Regarding B5, the “Up or Down” value is “Up”.

Regarding B6, the “Up or Down” value was “Up”. For B7, the “Up or Down” value is recorded as “Up”. As to B8, the “Up or Down” value is given as “Up”. In the case of B9, the “Up or Down” value is given as “Up”.

B10: the “Up or Down” value is “Up”. Regarding B11, the “Up or Down” value was “Up”. B12: the “Up or Down” value was “Up”. Take B13: the “Up or Down” value is recorded as “Up”.

Still in this data set, the particulars now being: patients who did vs did not require RRT/dialysis; read with the Up or Down column.
As to B1, the “Mean Fold Change” value was 3.662.

Take B2: the “Mean Fold Change” value is reported as 3.683.

As for B3, the “Mean Fold Change” value is listed as 4.004. In the case of B6, the “Mean Fold Change” value worked out at 2.555. Turning to B8, the “Mean Fold Change” value is recorded as 5.213. Turning to B9, the “Mean Fold Change” value is reported as 4.662. With B10, the “Mean Fold Change” value is listed as 1.839.

Turning to B11, the “Mean Fold Change” value is recorded as 4.875. Same read-out and setting: for B12 the value was 4.711; for B13, 1.55.

For the origin of these results see US20140038203A1, “METHODS FOR DETECTING OR PREDICTING KIDNEY DISEASE” (MUSC FOUNDATION FOR RESEARCH DEVELOPMENT, priority 2012, published 2014).
